Source: PMC10804554
No constants are given. Whether binding was seen depends on the method and setting. In cells and extracts the contact can be indirect. Some entries that bind do so weakly or less than the wild type.

Sequences of proteins named here, by UniProt entry; tags and fusion partners are left off. A change or cut given only in a name is not applied to a line headed by its entry. A line that says so, or that is headed by a name, gives the form on record, which may keep a tag or linker.
UniProt Q00987: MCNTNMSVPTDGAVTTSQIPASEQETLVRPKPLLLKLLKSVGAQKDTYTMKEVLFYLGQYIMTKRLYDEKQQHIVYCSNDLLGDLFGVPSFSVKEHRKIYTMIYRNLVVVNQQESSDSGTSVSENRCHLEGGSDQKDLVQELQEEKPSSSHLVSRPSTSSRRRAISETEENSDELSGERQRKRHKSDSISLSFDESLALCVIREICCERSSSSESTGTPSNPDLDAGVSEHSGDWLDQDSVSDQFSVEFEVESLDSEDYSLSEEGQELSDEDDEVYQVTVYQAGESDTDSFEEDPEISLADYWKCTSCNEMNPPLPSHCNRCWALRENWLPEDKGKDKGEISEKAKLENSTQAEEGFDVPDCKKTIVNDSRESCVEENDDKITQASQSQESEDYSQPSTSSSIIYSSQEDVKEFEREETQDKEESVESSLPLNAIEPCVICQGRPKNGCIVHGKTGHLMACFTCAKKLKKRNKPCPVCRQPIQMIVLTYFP
UniProt Q13315: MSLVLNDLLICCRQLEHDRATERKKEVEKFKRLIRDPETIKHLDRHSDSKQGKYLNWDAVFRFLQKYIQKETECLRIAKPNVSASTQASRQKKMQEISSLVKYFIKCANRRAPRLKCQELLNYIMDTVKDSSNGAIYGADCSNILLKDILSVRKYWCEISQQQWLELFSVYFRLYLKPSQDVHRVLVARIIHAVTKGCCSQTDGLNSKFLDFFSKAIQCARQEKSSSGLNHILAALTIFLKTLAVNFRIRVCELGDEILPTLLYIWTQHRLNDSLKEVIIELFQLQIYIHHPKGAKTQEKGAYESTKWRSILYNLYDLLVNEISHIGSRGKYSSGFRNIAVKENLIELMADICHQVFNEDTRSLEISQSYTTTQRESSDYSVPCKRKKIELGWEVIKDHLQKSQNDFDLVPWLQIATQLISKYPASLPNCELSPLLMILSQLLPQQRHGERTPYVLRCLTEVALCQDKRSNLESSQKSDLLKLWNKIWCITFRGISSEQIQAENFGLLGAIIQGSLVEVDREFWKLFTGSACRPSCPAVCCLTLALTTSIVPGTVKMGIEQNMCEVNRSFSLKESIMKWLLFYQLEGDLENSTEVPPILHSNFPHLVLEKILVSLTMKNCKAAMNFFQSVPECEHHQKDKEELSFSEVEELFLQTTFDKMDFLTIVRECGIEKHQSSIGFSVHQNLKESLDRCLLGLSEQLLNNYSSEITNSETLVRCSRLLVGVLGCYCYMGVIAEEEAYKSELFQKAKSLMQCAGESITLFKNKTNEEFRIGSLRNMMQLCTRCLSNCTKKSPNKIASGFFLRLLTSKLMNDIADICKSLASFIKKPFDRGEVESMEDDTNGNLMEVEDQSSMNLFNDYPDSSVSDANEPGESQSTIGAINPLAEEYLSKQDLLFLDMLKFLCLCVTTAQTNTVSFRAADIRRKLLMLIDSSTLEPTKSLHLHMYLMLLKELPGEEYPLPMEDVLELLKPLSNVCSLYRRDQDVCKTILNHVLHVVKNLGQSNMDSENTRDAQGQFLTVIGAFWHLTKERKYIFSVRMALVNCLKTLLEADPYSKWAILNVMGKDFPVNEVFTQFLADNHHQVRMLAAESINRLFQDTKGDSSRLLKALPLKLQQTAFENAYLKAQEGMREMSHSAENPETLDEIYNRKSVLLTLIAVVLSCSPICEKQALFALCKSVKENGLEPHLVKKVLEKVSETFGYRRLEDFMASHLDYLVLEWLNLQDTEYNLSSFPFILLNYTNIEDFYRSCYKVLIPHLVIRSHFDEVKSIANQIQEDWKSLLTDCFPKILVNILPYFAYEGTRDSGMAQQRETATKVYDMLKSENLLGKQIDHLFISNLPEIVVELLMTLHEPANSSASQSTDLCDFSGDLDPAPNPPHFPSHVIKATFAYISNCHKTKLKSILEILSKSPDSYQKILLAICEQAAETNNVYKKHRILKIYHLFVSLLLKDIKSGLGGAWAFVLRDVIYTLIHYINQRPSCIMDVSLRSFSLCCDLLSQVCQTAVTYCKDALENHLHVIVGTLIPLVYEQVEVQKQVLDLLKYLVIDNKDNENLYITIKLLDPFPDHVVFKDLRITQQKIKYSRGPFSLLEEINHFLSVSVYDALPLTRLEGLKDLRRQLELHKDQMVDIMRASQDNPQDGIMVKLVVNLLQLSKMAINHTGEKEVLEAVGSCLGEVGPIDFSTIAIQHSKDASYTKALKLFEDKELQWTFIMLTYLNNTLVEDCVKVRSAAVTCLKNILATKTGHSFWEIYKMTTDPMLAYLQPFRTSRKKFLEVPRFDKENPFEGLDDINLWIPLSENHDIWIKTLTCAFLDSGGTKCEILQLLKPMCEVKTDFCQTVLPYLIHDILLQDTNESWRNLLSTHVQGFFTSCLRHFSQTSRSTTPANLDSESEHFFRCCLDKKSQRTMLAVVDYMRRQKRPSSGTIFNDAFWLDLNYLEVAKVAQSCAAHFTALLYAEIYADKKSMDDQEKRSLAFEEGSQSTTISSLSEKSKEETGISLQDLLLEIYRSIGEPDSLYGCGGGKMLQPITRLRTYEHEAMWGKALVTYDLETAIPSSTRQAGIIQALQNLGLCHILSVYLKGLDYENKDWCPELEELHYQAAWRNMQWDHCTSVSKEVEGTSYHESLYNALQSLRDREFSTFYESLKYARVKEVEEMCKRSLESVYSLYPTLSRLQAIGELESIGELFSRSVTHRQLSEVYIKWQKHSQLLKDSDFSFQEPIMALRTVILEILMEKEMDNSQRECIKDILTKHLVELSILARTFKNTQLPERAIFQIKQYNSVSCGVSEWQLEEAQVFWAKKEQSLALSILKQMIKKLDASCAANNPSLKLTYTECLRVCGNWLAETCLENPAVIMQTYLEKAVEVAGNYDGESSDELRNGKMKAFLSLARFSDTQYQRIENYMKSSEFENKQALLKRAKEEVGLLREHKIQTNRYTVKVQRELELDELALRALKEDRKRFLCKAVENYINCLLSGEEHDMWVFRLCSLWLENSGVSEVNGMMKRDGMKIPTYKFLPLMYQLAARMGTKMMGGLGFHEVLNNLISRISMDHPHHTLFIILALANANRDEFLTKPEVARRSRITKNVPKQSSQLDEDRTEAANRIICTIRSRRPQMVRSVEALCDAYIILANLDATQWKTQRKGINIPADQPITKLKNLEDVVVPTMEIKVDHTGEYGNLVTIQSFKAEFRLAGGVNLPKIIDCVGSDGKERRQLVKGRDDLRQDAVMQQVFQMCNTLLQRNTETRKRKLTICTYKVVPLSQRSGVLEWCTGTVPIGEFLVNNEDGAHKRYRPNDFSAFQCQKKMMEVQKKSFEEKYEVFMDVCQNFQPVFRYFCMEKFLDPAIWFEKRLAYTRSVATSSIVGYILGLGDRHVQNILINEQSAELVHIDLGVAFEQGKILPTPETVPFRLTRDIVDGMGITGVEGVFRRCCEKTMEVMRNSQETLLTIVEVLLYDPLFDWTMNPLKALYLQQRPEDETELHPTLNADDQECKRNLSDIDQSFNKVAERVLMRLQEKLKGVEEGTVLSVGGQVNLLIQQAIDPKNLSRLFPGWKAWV
ATM(1–2667) with the S1981A mutation (Q13315, form named): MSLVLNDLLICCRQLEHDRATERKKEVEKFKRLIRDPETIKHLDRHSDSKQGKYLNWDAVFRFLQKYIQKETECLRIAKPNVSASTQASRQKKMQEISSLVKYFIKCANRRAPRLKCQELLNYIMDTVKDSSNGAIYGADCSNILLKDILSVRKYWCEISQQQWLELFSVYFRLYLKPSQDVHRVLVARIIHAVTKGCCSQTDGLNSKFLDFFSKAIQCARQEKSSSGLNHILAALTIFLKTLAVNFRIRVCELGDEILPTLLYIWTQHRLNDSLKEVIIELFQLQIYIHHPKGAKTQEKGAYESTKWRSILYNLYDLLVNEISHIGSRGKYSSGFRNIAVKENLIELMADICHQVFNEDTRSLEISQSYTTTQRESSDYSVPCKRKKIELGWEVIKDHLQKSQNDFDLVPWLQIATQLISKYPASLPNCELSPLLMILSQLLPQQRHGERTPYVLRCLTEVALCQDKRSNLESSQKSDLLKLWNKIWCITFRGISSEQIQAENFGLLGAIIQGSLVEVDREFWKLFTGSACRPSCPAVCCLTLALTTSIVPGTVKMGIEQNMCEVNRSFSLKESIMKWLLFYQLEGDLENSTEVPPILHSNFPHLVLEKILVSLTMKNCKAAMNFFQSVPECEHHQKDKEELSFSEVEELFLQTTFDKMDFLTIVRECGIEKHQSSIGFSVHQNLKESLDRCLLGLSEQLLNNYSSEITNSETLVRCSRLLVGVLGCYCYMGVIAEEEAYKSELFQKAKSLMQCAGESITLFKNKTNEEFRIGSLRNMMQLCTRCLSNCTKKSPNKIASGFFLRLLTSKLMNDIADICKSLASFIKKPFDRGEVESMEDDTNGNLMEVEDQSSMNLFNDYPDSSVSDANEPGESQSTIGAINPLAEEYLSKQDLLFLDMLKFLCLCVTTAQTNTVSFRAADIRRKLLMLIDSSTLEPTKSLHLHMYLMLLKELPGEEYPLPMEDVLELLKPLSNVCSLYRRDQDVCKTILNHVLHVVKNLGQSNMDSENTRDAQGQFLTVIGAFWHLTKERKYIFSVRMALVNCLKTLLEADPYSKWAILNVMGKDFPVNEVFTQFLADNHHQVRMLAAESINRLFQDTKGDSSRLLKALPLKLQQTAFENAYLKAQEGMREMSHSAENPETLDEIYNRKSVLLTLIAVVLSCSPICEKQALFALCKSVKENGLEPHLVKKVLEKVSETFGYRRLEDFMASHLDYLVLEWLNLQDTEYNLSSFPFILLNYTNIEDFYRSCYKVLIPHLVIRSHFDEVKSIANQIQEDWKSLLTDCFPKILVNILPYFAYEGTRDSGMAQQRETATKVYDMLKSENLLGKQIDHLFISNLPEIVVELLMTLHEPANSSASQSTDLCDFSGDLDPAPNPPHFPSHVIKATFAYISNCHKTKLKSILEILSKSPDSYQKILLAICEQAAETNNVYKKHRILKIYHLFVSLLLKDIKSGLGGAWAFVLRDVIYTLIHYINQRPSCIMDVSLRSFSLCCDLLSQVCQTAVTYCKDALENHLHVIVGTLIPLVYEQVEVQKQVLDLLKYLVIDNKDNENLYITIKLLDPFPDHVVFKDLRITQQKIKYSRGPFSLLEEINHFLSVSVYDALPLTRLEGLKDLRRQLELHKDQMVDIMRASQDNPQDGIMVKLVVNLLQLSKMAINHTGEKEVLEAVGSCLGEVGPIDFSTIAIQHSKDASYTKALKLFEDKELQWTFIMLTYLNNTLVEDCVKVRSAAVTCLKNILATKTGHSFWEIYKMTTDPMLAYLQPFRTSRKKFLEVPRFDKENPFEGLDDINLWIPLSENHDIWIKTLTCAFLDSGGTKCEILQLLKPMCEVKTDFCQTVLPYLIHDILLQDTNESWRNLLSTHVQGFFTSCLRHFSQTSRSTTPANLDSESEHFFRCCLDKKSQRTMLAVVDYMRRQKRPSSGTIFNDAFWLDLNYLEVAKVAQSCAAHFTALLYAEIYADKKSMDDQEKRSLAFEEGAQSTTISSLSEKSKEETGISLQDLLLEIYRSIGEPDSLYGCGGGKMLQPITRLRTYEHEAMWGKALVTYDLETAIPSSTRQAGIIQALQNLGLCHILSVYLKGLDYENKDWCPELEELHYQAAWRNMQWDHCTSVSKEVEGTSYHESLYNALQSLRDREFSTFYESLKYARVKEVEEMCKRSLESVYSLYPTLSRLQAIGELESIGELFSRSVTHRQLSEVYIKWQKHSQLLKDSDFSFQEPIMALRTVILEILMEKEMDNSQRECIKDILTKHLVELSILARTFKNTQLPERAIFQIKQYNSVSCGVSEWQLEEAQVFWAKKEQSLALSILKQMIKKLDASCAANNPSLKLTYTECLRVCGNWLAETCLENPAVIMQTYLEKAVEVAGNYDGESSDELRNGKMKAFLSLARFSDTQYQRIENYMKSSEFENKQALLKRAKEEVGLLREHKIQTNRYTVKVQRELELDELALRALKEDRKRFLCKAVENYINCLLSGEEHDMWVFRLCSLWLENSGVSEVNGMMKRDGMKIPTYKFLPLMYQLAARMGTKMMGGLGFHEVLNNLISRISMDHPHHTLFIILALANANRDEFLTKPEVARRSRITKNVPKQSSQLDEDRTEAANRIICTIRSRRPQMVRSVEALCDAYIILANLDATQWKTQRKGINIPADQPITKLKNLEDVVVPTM

target: MDM2 in AT5 BiVA cells (UniProt Q00987); assay: proximity ligation; PLA on fixed AT5 BiVA cells (ATM-null) transfected with ATM constructs, ATM with MDM2; normal conditions (DMSO) or doxorubicin; PLA dots counted per cell

binding	Substance
no binding	ATM(1–2057) (from UniProt Q13315 1-2057) (domain or fragment)
no binding	ATM(1–2667) (from UniProt Q13315 1-2667) (domain or fragment)
no binding	ATM(1–2667) with the S1981A mutation (from UniProt Q13315 1-2667) (domain or fragment)
binds	ATM(1–2667) with the phosphomimetic S1981D mutation (from UniProt Q13315 1-2667) (domain or fragment)
